Values of other authors in patent US20260263485A1, “AMINOSTEROL COMPOUNDS, AMINOSTEROL-CYCLODEXTRIN FORMULATIONS, AND METHODS OF USING THE SAME” (Enterin, Inc., priority 2022, published 2026).
Counter-ions that a name gives are not always drawn. At least one structure is not confirmed: it was looked up by name or label, or the drawing left a doubt.

Tests used:
α-synuclein protein = α-synuclein protein (Homo sapiens, UniProt P37840); conditions: cited from earlier work
[1] = obese mice; cited from earlier work
[2] = early stage human clinical trials; cited from earlier work
[3] = vertebrates (Zasloff et al., 2001); cited from earlier work

## CC(C)[C@@H](CC[C@@H](C)[C@H]1CC[C@H]2[C@@H]3[C@H](O)C[C@H]4C[C@@H](NCCCNCCCCN)CC[C@]4(C)[C@H]3CC[C@]12C)OS(=O)(=O)O [Squalamine, (24R)-3β-({3-[(3-Aminopropyl)amino]propyl)amino)-7α-hydroxycholestan-24-yl hydrogen sulfate]
α-synuclein protein
  aggregation of the α-synuclein protein: inhibits aggregation

## CC(C)[C@@H](CC[C@@H](C)[C@H]1CC[C@H]2[C@@H]3[C@H](O)C[C@H]4C[C@@H](NCCCNCCCCNCCCN)CC[C@]4(C)[C@H]3CC[C@]12C)OS(=O)(=O)O [Aminosterol 1436, (3R,6R)-6-((3S,5R,7R,8R,9S,10S,13R,14S,17R)-3-((3-((4-((3-aminopropyl)amino)butyl)amino)propyl)amino)-7-hydroxy-10,13-dimethylhexadecahydro-1H-cyclopenta[a]phenanthren-17-yl)-2-methylheptan-3-yl hydrogen sulfate]
[1]
  fatty liver disease: reversed fatty liver disease
  food intake, adiposity and body weight: reduced food intake, adiposity and body weight
  insulin resistance: corrected insulin resistance
[2]
  insulin sensitivity: increased insulin sensitivity
  weight: dose dependent weight reduction
[3]
  weight loss and adipose tissue mobilization: causing weight loss and adipose tissue mobilization
